Measurements reported in patent publication US9775883B2, “Methods, systems, and compositions for promoting recovery of peripheral neuropathy” (HENRY FORD HEALTH SYSTEM, priority 2011, dated 2017).
Part of at least one peptide drawing is inferred or uncertain, most often the ends. For some of these results: For at least one compound, name, drawing or mass did not settle the structure.

What was measured:
Ang1 [1] = assay: Ang1 mRNA and protein in HUVECs (real-time RT-PCR, Western blot); type: cell-based, human
Ang2 [2] = assay: Ang2 mRNA and protein in HUVECs (real-time RT-PCR, Western blot); type: cell-based, human
[3] = tested on: PI3K/Akt signaling pathway; assay: Western blot of pAkt in HUVECs; type: cell-based, human
Ang1 [4] = assay: Ang1 mRNA and protein in HSCs (real-time RT-PCR, Western blot); type: cell-based, human; details: for effect of Tβ4 on Ang1 expression in HSCs, PI3K inhibitor: high glucose with Tβ4 plus inhibitor
Ang2 [5] = assay: Ang2 mRNA and protein in HSCs (real-time RT-PCR, Western blot); type: cell-based, human
[6] = tested on: PI3K/Akt signaling pathway; assay: Western blot of pAkt in HSCs; type: cell-based, human; details: for Tβ4-increased pAkt levels in HSCs, PI3K inhibitor: high glucose with Tβ4 plus inhibitor
[7] = Effect of TB4 on blood glucose of db/db mice; type: in vivo, mouse; details: for Blood glucose: db/db mice, mean ± SE
db/db mice [8] = assay: vWF immunoreactive vascular perimeter in the sciatic nerve; type: in vivo, mouse; details: 6 and 24 mg/kg for 4 weeks, at age of 28 weeks, vs saline
db/db mice [9] = assay: Occludin immunoreactive vessels in the sciatic nerve; type: in vivo, mouse
db/db mice [10] = assay: FITC-dextran perfused vessels in the sciatic nerve; type: in vivo, mouse; details: 6 and 24 mg/kg for 4 weeks, at age of 28 weeks, vs saline
db/db mice [11] = assay: Regional sciatic nerve blood flow by laser Doppler flowmetry; type: in vivo, mouse; details: 6 and 24 mg/kg for 4 weeks, at age of 28 weeks, vs saline
db/db mice [12] = assay: Sciatic nerve conduction velocity (MCV, SCV); type: in vivo, mouse; details: 6 and 24 mg/kg for 4 weeks, at end of treatment and 4 weeks after termination, vs saline
Ang1 [13] = assay: Western blot of Ang1 in sciatic nerve tissue; type: in vivo; details: db/db mouse, vs saline
Ang2 [14] = assay: Western blot of Ang2 in sciatic nerve tissue; type: in vivo; details: db/db mouse, vs saline
HUVECs [15] = assay: Capillary-like tube formation assay in HUVECs; type: cell-based, human; details: high glucose, Tβ4 100 ng/ml
Ang1 [16] = assay: ELISA of Ang1 levels in supernatants from HSCs; type: cell-based, human; details: high glucose, Tβ4 100 ng/ml, HSCs cultured for 48 h
HUVECs [17] = assay: Capillary-like tube formation in HUVECs with conditioned medium from HSCs; type: cell-based, human; details: HSCs under high glucose, Tβ4 100 ng/ml
[18] = high glucose with Tβ4 plus inhibitor

## O=c1cc(N2CCOCC2)oc2c(-c3ccccc3)cccc12 [LY294002, reference compound]
Ang1 [1]; [18]
  effect of Tβ4 on Ang1 expression in HUVECs, PI3K inhibitor: completely suppressed the effect of Tβ4 on Ang1
Ang2 [2]; [18]
  effect of Tβ4 on Ang2 expression in HUVECs, PI3K inhibitor: but not Ang2
[3]; [18]
  Tβ4-increased pAkt levels in HUVECs, PI3K inhibitor: fully blocked
Ang1 [4]
  effect of Tβ4 on Ang1 expression in HSCs, PI3K inhibitor: completely suppressed the effect of Tβ4 on Ang1
Ang1 [4]; listed as LY294003
  effect of Tβ4 on Ang1 expression in HSCs, PI3K inhibitor: suppressed the effect of Tβ4 on Ang1 upregulation
Ang2 [5]; [18]
  effect of Tβ4 on Ang2 expression in HSCs, PI3K inhibitor: but not Ang2
[6]
  Tβ4-increased pAkt levels in HSCs, PI3K inhibitor: fully blocked
[6]; listed as LY294003
  Tβ4-increased pAkt levels in HSCs, PI3K inhibitor: inactivated Akt

## CC[C@H](C)[C@H](NC(=O)[C@H](CCC(=O)O)NC(=O)[C@H](C)NC(=O)[C@H](CCSC)NC(=O)[C@H](CC(=O)O)NC(=O)[C@@H]1CCCN1C(=O)[C@H](CCCCN)NC(=O)[C@H](CC(=O)O)NC(=O)[C@H](CO)NC(C)=O)C(=O)N[C@@H](CCC(=O)O)C(=O)N[C@@H](CCCCN)C(=O)N[C@@H](Cc1ccccc1)C(=O)N[C@@H](CC(=O)O)C(=O)N[C@@H](CCCCN)C(=O)N[C@@H](CO)C(=O)N[C@@H](CCCCN)C(=O)N[C@@H](CC(C)C)C(=O)N[C@@H](CCCCN)C(=O)N[C@@H](CCCCN)C(=O)N[C@H](C(=O)N[C@@H](CCC(=O)O)C(=O)N[C@H](C(=O)N[C@@H](CCC(N)=O)C(=O)N[C@@H](CCC(=O)O)C(=O)N[C@@H](CCCCN)C(=O)N[C@@H](CC(N)=O)C(=O)N1CCC[C@H]1C(=O)N[C@@H](CC(C)C)C(=O)N1CCC[C@H]1C(=O)N[C@@H](CO)C(=O)N[C@@H](CCCCN)C(=O)N[C@@H](CCC(=O)O)C(=O)N[C@H](C(=O)N[C@H](C(=O)N[C@@H](CCC(=O)O)C(=O)N[C@@H](CCC(N)=O)C(=O)N[C@@H](CCC(=O)O)C(=O)N[C@@H](CCCCN)C(=O)N[C@@H](CCC(N)=O)C(=O)N[C@@H](C)C(=O)NCC(=O)N[C@@H](CCC(=O)O)C(=O)N[C@@H](CO)C(=O)O)[C@@H](C)CC)[C@@H](C)O)[C@@H](C)O)[C@@H](C)O [Tβ4, thymosin beta 4]
[7]; TB4 6 mg/kg i.p. every 3 days for 4 weeks, 0 w (before the treatment)
  Blood glucose: 503.4 ± 24.0 g/dL
[7]; TB4 6 mg/kg, 2 w
  Blood glucose: 513.4 ± 17.5 g/dL
[7]; TB4 6 mg/kg, 4 w
  Blood glucose: 512.8 ± 24.8 g/dL
[7]; TB4 6 mg/kg, 6 w
  Blood glucose: 517.6 ± 21.4 g/dL
[7]; TB4 6 mg/kg, 8 w
  Blood glucose: 503.3 ± 18.0 g/dL
[7]; TB4 24 mg/kg i.p. every 3 days for 4 weeks, 0 w (before the treatment)
  Blood glucose: 517.6 ± 15.0 g/dL
[7]; TB4 24 mg/kg, 2 w
  Blood glucose: 515.9 ± 13.1 g/dL
[7]; TB4 24 mg/kg, 4 w
  Blood glucose: 504.7 ± 16.5 g/dL
[7]; TB4 24 mg/kg, 6 w
  Blood glucose: 521.6 ± 16.0 g/dL
[7]; TB4 24 mg/kg, 8 w
  Blood glucose: 515.8 ± 19.3 g/dL
[7]; db/db mouse treated with Tβ4 (Table 2)
  blood glucose levels: did not significantly alter
db/db mice [8]
  vascular perimeter (vWF immunoreactive): significant increases
db/db mice [9]; 6 and 24 mg/kg for 4 weeks, at age of 28 weeks, vs saline
  occludin immunoreactive vessels: significant increases
db/db mice [9]; FIG. 2, p<0.05 vs saline
  percentage of occludin immunoreactive area in the vessel walls: increases
db/db mice [10]
  density of FITC-dextran perfused vessels: significant increases
db/db mice [11]
  sciatic nerve blood flow: significant increases
db/db mice [12]
  MCV (motor nerve conduction velocity): marked improvement
  SCV (sensory nerve conduction velocity): marked improvement
Ang1 [13]
  Ang1 expression in the sciatic nerve: significantly increased
Ang2 [14]
  Ang2 expression in the sciatic nerve: decreased
HUVECs [15]
  capillary-like tube formation: suppressed the effect of high glucose on reduction of capillary-like tube formation
Ang1 [1]; high glucose with Tβ4
  Ang1 expression in HUVECs: abolished high glucose-induced expression
Ang2 [2]; high glucose with Tβ4
  Ang2 expression in HUVECs: abolished high glucose-induced expression
[3]; high glucose with Tβ4
  pAkt levels in HUVECs: significantly increased
Ang1 [4]; high glucose, Tβ4 100 ng/ml
  Ang1 expression in HSCs: suppressed the high glucose effect
Ang2 [5]; high glucose, Tβ4 100 ng/ml
  Ang2 expression in HSCs: suppressed the high glucose effect
[6]; high glucose with Tβ4
  pAkt levels in HSCs: significantly increased
Ang1 [16]
  Ang1 levels in supernatants from HSCs (ELISA): reversed the effect of the high glucose on Ang1 levels
HUVECs [17]
  capillary-like tube formation with conditioned medium from Tβ4-treated HSCs: significantly increased
